No constants are given. Whether binding was seen depends on the method and setting. In cells and extracts the contact can be indirect. These calls come from enrichment with a bait or labelling near it, and not all partners need be listed.
Target: urokinase-type plasminogen activator receptor (PLAUR), endogenous in neutrophils (UniProt Q03405)
Experiment: affinity purification with mass spectrometry; mass spectrometry analysis of neutrophils for PLAUR-interacting proteins; details not told in the main text

Amino acid sequences for entries named in this document (tags omitted). Residues count along the entry.
UniProt Q03405, residues 23-305: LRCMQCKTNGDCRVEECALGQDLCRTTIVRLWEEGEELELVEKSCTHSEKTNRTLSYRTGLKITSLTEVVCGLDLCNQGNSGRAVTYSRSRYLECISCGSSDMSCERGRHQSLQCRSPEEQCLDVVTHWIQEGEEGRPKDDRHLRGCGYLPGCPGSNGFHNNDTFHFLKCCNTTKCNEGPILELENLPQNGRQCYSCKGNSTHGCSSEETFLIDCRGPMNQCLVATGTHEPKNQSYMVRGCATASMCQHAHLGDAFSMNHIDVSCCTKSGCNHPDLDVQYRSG
UniProt P35579: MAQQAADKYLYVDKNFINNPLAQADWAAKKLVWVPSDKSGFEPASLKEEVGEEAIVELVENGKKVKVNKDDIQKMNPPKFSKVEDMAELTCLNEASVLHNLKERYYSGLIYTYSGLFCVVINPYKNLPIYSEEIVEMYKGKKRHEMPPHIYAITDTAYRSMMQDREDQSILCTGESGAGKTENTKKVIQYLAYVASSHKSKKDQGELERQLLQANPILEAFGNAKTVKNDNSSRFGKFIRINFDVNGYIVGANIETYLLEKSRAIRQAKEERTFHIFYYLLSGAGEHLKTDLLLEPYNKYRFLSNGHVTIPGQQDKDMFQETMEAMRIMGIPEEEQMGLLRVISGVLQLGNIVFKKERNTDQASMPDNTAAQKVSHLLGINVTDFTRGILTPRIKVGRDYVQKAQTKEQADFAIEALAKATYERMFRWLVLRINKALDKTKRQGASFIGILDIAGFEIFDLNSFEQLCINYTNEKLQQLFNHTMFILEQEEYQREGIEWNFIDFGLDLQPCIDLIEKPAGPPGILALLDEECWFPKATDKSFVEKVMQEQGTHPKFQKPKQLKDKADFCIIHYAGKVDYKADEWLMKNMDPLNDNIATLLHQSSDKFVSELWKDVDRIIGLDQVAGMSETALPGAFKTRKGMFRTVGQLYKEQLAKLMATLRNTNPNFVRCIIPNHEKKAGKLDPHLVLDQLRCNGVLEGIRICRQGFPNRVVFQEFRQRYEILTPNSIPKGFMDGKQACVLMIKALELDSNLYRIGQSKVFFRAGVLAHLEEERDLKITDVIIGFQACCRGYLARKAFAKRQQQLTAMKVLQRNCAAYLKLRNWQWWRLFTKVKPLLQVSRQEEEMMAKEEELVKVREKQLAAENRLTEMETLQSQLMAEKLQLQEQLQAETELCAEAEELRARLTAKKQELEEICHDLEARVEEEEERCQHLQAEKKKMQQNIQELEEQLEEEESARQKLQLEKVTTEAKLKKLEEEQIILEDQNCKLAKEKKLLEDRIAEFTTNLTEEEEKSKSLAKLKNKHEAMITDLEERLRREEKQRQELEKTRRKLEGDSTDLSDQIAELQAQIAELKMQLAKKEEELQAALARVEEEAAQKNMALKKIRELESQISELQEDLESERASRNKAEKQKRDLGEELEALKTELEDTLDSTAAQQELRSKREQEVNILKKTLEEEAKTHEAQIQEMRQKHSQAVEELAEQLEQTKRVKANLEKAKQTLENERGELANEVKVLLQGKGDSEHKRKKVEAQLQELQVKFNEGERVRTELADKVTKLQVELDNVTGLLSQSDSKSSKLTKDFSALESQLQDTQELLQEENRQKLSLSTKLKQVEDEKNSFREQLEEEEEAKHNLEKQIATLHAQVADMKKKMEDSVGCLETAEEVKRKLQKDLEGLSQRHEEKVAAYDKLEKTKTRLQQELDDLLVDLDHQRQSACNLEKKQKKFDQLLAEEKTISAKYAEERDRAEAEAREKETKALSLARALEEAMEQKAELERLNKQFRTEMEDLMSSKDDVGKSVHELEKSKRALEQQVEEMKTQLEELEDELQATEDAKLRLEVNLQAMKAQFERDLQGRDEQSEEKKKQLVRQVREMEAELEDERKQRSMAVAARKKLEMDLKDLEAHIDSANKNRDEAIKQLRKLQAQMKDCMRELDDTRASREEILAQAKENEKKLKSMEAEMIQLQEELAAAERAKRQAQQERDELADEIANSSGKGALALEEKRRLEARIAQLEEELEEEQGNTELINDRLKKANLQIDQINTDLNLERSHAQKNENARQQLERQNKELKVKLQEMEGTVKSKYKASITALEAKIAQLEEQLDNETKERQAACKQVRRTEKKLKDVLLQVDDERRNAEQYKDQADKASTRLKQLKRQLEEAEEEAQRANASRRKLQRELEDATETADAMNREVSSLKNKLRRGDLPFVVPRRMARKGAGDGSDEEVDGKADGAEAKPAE

binding: binds
Substance: myosin heavy chain 9 (MYH9) (from UniProt P35579 1-1960)

From PMC12520528
